# Reference: the supplement of paper PMC8728848
# The list shows a part of the results.
# B1: DCIR1 (Mus musculus), Q9QZ15 (protein)
# chain: MASEITYAEVKFKNESNSLHTYSESPAAPREKPIRDLRKPGSPSLLLTSLMLLLLLLAITFLVAFIIYFQKYSQLLEEKKAAKNIMHNELNCTKSVSPMEDKVWSCCPKDWRLFGSHCYLVPTVSSSASWNKSEENCSRMGAHLVVIQSQEEQDFITGILDTHAAYFIGLWDTGHRQWQWVDQTPYEESITFWHNGEPSSGNEKCATIIYRWKTGWGWNDISCSLKQKSVCQMKKINL
# Columns and labels:
# Experiment in all cases: glycan array binding signal (z-score within array); higher = stronger binding
# Details in all cases: glycan notation: IUPAC condensed, linker removed
# [1] = target: Gal3S(b1-3)[Fuc(a1-4)]GlcNAc
# Summary of the method: (§1)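 Glycan array data were curated from 3228 arrays in the Consortium for Functional Glycomics database and kept only where the protein sequence was available. Glycan names were converted to IUPAC-condensed notation, and columns mapping to the same glycan were averaged. The binding signal is a within-array Z-score, averaged across arrays of the same protein sequence at different concentrations or buffers and across linkers. Negative Z-scores can be read as non-binding.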
# Gal3S(b1-4)Glc = target: Gal3S(b1-4)Glc
# Summary of the method: as §1
# Gal3S(b1-4)Glc6S = target: Gal3S(b1-4)Glc6S
# Summary of the method: as §1
# Gal3S(b1-4)GlcNAc = target: Gal3S(b1-4)GlcNAc
# Summary of the method: as §1
# [2] = target: Gal3S(b1-4)[Fuc(a1-3)]Glc6S
# Summary of the method: as §1
# [3] = target: Gal3S(b1-4)[Fuc(a1-3)]GlcNAc
# Summary of the method: as §1
# [4] = target: Gal3S(b1-4)[Fuc(a1-3)]GlcNAc6S
# Summary of the method: as §1
# Gal3S4S(b1-4)GlcNAc = target: Gal3S4S(b1-4)GlcNAc
# Summary of the method: as §1
# Gal3S6S(b1-4)GlcNAc = target: Gal3S6S(b1-4)GlcNAc
# Summary of the method: as §1
# Gal3S6S(b1-4)GlcNAc6S = target: Gal3S6S(b1-4)GlcNAc6S
# Summary of the method: as §1
# Gal4S(b1-4)GlcNAc = target: Gal4S(b1-4)GlcNAc
# Summary of the method: as §1
# Gal4S6S(b1-4)GlcNAc = target: Gal4S6S(b1-4)GlcNAc
# Summary of the method: as §1
# Gal6P(b1-4)GlcNAc = target: Gal6P(b1-4)GlcNAc
# Summary of the method: as §1
# Gal6S(b1-3)GlcNAc = target: Gal6S(b1-3)GlcNAc
# Summary of the method: as §1
# Gal6S(b1-3)GlcNAc6S = target: Gal6S(b1-3)GlcNAc6S
# Summary of the method: as §1
# Gal6S(b1-4)Glc = target: Gal6S(b1-4)Glc
# Summary of the method: as §1
# Gal6S(b1-4)Glc6S = target: Gal6S(b1-4)Glc6S
# Summary of the method: as §1
# Gal6S(b1-4)GlcNAc = target: Gal6S(b1-4)GlcNAc
# Summary of the method: as §1
# Gal6S(b1-4)GlcNAc6S = target: Gal6S(b1-4)GlcNAc6S
# Summary of the method: as §1
# GalNAc(a1-3)Gal = target: GalNAc(a1-3)Gal
# Summary of the method: as §1
# GalNAc(a1-3)GalNAc = target: GalNAc(a1-3)GalNAc
# Summary of the method: as §1
# [5] = target: GalNAc(a1-3)GalNAc(b1-3)Gal(a1-4)Gal(b1-4)Glc
# Summary of the method: as §1
# [6] = target: GalNAc(a1-3)GalNAc(b1-3)Gal(a1-4)Gal(b1-4)GlcNAc
# Summary of the method: as §1
# GalNAc(b1-3)Gal = target: GalNAc(b1-3)Gal
# Summary of the method: as §1
# [7] = target: GalNAc(b1-3)Gal(a1-4)Gal(b1-4)GlcNAc
# Summary of the method: as §1
# [8] = target: GalNAc(b1-3)Gal(a1-4)Gal(b1-4)GlcNAc(b1-3)Gal(b1-4)Glc
# Summary of the method: as §1
# [9] = target: GalNAc(b1-3)Gal(a1-6)Gal(b1-4)Glc
# Summary of the method: as §1
# GalNAc(b1-3)GalNAc = target: GalNAc(b1-3)GalNAc
# Summary of the method: as §1
# GalNAc(b1-3)GlcNAc = target: GalNAc(b1-3)GlcNAc
# Summary of the method: as §1
# GalNAc(b1-4)Gal(b1-4)Glc = target: GalNAc(b1-4)Gal(b1-4)Glc
# Summary of the method: as §1
# GalNAc(b1-4)GlcNAc = target: GalNAc(b1-4)GlcNAc
# Summary of the method: as §1
# [10] = target: GalNAc(b1-4)GlcNAc(b1-2)Man
# Summary of the method: as §1
# [11] = target: GalNAc(b1-4)GlcNAc(b1-2)Man(a1-3)[GalNAc(b1-4)GlcNAc(b1-2)Man(a1-6)]Man(b1-4)GlcNAc(b1-4)GlcNAc
# Summary of the method: as §1
# [12] = target: GalNAc(b1-4)GlcNAc(b1-3)GalNAc(b1-4)GlcNAc
# Summary of the method: as §1
# GalNAc(b1-4)GlcNAc6S = target: GalNAc(b1-4)GlcNAc6S
# Summary of the method: as §1
# GalNAc(b1-6)GalNAc = target: GalNAc(b1-6)GalNAc
# Summary of the method: as §1
# GalNAc3S(b1-4)GlcNAc = target: GalNAc3S(b1-4)GlcNAc
# Summary of the method: as §1
# GalNAc3S(b1-4)GlcNAc3S = target: GalNAc3S(b1-4)GlcNAc3S
# Summary of the method: as §1
# [13] = target: GalNAc3S(b1-4)[Fuc(a1-3)]GlcNAc
# Summary of the method: as §1
# GalNAc4S6S(b1-4)GlcNAc = target: GalNAc4S6S(b1-4)GlcNAc
# Summary of the method: as §1
# GalNAc6S(b1-4)GlcNAc = target: GalNAc6S(b1-4)GlcNAc
# Summary of the method: as §1
# Glc(a1-4)Glc = target: Glc(a1-4)Glc
# Summary of the method: as §1
# [14] = target: Glc(a1-4)Glc(a1-4)Glc(a1-4)Glc
# Summary of the method: as §1
# Glc(a1-6)Glc(a1-6)Glc = target: Glc(a1-6)Glc(a1-6)Glc
# Summary of the method: as §1
# [15] = target: Glc(a1-6)Glc(a1-6)Glc(a1-6)Glc
# Summary of the method: as §1
binder,measurement,setting,value
B1,glycan array binding signal (z-score),[1],-0.369
same,glycan array binding signal (z-score),Gal3S(b1-4)Glc,1.19
same,glycan array binding signal (z-score),Gal3S(b1-4)Glc6S,1.04
same,glycan array binding signal (z-score),Gal3S(b1-4)GlcNAc,-0.589
same,glycan array binding signal (z-score),[2],0.117
same,glycan array binding signal (z-score),[3],-0.699
same,glycan array binding signal (z-score),[4],0.98
same,glycan array binding signal (z-score),Gal3S4S(b1-4)GlcNAc,-0.376
same,glycan array binding signal (z-score),Gal3S6S(b1-4)GlcNAc,0.218
same,glycan array binding signal (z-score),Gal3S6S(b1-4)GlcNAc6S,0.649
same,glycan array binding signal (z-score),Gal4S(b1-4)GlcNAc,-0.286
same,glycan array binding signal (z-score),Gal4S6S(b1-4)GlcNAc,0.062
same,glycan array binding signal (z-score),Gal6P(b1-4)GlcNAc,-0.489
same,glycan array binding signal (z-score),Gal6S(b1-3)GlcNAc,-0.787
same,glycan array binding signal (z-score),Gal6S(b1-3)GlcNAc6S,0.954
same,glycan array binding signal (z-score),Gal6S(b1-4)Glc,-0.115
same,glycan array binding signal (z-score),Gal6S(b1-4)Glc6S,0.927
same,glycan array binding signal (z-score),Gal6S(b1-4)GlcNAc,-0.003
same,glycan array binding signal (z-score),Gal6S(b1-4)GlcNAc6S,-0.128
same,glycan array binding signal (z-score),GalNAc(a1-3)Gal,0.51
same,glycan array binding signal (z-score),GalNAc(a1-3)GalNAc,-0.78
same,glycan array binding signal (z-score),[5],-0.298
same,glycan array binding signal (z-score),[6],2.31
same,glycan array binding signal (z-score),GalNAc(b1-3)Gal,0.474
same,glycan array binding signal (z-score),[7],0.261
same,glycan array binding signal (z-score),[8],0.98
same,glycan array binding signal (z-score),[9],-0.546
same,glycan array binding signal (z-score),GalNAc(b1-3)GalNAc,-0.661
same,glycan array binding signal (z-score),GalNAc(b1-3)GlcNAc,-0.653
same,glycan array binding signal (z-score),GalNAc(b1-4)Gal(b1-4)Glc,1.34
same,glycan array binding signal (z-score),GalNAc(b1-4)GlcNAc,1.05
same,glycan array binding signal (z-score),[10],-0.317
same,glycan array binding signal (z-score),[11],1.72
same,glycan array binding signal (z-score),[12],-0.611
same,glycan array binding signal (z-score),GalNAc(b1-4)GlcNAc6S,0.095
same,glycan array binding signal (z-score),GalNAc(b1-6)GalNAc,-0.978
same,glycan array binding signal (z-score),GalNAc3S(b1-4)GlcNAc,-1
same,glycan array binding signal (z-score),GalNAc3S(b1-4)GlcNAc3S,-1.09
same,glycan array binding signal (z-score),[13],-0.573
same,glycan array binding signal (z-score),GalNAc4S6S(b1-4)GlcNAc,-0.77
same,glycan array binding signal (z-score),GalNAc6S(b1-4)GlcNAc,-0.83
same,glycan array binding signal (z-score),Glc(a1-4)Glc,-0.145
same,glycan array binding signal (z-score),[14],0.649
same,glycan array binding signal (z-score),Glc(a1-6)Glc(a1-6)Glc,-0.606
same,glycan array binding signal (z-score),[15],1.61

# Nothing new here: entries from further up.
binder,measurement,setting,value
B1,glycan array binding signal (z-score),Gal3S6S(b1-4)GlcNAc,0.218
same,glycan array binding signal (z-score),Gal3S6S(b1-4)GlcNAc6S,0.649
